These are yes or no findings as the source states them, for the method shown. Some binding calls cover weakened binding; strength is not graded here.
Target: human PAD2 protein (human) (UniProt Q9Y2J8)
Experiment: SPR (Biacore 8K), antibody captured on Protein A chip, human PAD2 as analyte, single-cycle, 1:1 model

Sequences of proteins named here, by UniProt entry; tags and fusion partners are left off. A change or cut given only in a name is not applied to a line headed by its entry.
UniProt Q9Y2J8: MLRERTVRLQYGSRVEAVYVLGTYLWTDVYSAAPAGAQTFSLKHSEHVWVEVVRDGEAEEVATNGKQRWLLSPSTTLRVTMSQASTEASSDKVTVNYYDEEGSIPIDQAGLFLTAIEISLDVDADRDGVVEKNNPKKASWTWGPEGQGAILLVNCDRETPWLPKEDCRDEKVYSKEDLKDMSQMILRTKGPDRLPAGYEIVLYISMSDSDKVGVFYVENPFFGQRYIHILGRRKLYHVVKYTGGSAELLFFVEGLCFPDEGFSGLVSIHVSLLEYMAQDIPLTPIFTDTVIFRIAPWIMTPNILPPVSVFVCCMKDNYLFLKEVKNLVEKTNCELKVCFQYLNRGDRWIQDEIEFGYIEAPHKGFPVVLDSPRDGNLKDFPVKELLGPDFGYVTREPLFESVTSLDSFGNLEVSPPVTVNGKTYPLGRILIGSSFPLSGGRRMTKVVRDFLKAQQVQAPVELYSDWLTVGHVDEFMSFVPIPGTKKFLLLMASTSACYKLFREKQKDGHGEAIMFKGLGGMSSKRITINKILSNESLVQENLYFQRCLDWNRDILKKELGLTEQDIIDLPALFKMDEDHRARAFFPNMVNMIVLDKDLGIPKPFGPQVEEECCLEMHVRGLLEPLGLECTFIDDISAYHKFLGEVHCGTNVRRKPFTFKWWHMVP

B1: CK1-14 (antibody, human IgG1, lambda, V domains shown)
VH: AVTLDESGGGLQTPGGALSLVCKASGFTFTRYAIQWVRQAPGKGLEWVGVINSGGRTLYAPAVKGRATISRDNGQSTVRLQLNNLRAEDTAIYYCVRGGYAYGIETWGHGTEVIVSS
VL: ALTQPSSVSANPGETVKITCSGSRYDYGWYQQKSPGSAPVTLIYYNNKRPSDIPSRFSGSKSGSTHTLTITGVQADDEAVYFCGSTDTSNDIFGAGTTLTVLG
binding: binds
